Assay results taken from PubChem BioAssay AID493014 (National Center for Advancing Translational Sciences (NCATS), 2011).
Some of the results follow. These are further read-outs of the screen, such as a control signal, another cell line or another target. No call is given for them. The list favours compounds with an active or inconclusive main result. The note in brackets gives the kind of curve behind each potency; many fits are weak.

Assay: qHTS Assay to Find Inhibitors of Chronic Active B-Cell Receptor Signaling
Settings: ABC-DLBCL IkBa-CBG/CBR reporter, luminescence ratio (green luciferase fused to IkBa over red control in TMD8 lymphoma cells), 4 h
Procedure, shortened: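 Concentration-response series (up to 46 uM) were applied to TMD8 dual-reporter cells for 4 h at 37C with doxycycline. Green/red ratio, after filter-overlap correction, defined %Activity; red signal alone was normalised to basal cells and zero luminescence.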

[1] = measured here: CBR red luminescence, cell number
[2] = measured here: IkBa-CBG green luminescence

SMILES | AC50 [1] | AC50 [2]
O=C1CC(N(O)c2ccccc2)C(=O)N1c1ccc(Cl)c(Cl)c1 (configuration not stated) | 0.282 µM [falling, full curve, poor fit] | 
O=C(CCC(=O)c1ccccc1)NCCc1c[nH]c2ccccc12 | 20.6 µM [rising, partial curve, poor fit] | 
N#Cc1c(NC(=O)c2cc(C3CC3)on2)sc2c1CCC2 | 2.51 µM [rising, full curve, poor fit] | 
CCOC(=O)c1cc2n(c1N)-c1ccccc1C2=O | 4.61 µM [rising, partial curve] | 
COc1ccc(CCn2c(C)nc3c(c(=O)c4ccccc4n3C)c2=O)cc1 | 8.91 µM [falling, partial curve] | 
CC(C)(C)NC(=O)CSc1nc2ccc(Nc3nc(N4CCOCC4)nc(N4CCOCC4)n3)cc2s1 | 8.91 µM [falling, partial curve, poor fit] | 
c1ccc(CSc2nnnn2-c2ccc3c(c2)OCCO3)nc1 | 2.51 µM [rising, single point] | 
CCC(=O)Nc1nc2ccc([N+](=O)[O-])cc2s1 | 0.1 µM [rising, full curve, poor fit] | 
CCOC(=O)c1c(O)cc(C)[nH]c1=O | 5.62 µM [falling, partial curve, poor fit] | 
COc1ccc(-c2nnc(Sc3nc4ccccc4o3)c3ccccc23)cc1 | 35.5 µM [rising, single point] | 
O=C1C=C(c2ccc(Cl)cc2)C(=O)N1Nc1ccccc1 | 1.84 µM [falling, full curve] | 
COc1cc2c(CCNC(C)=O)c[nH]c2cc1Cl | 16.4 µM [rising, partial curve, poor fit] | 
Nc1cc(N)nc(SCC(=O)N2CCc3ccccc32)n1 | 3.66 µM [falling, full curve, poor fit] | 
Cc1ccccc1-c1nc2ccccc2[nH]1 | 2.31 µM [falling, full curve] | 
CSCCC(NS(=O)(=O)c1cccc(C(F)(F)F)c1)C(=O)N(C)CCOc1ccc(Cl)cc1 (configuration not stated) | 25.9 µM [falling, partial curve, poor fit] | 
CCOc1cc(/C=C2\SC(=NC)N(C)C2=O)c(Br)cc1OC(C)=O | 4.47 µM [falling, partial curve, poor fit] | 
COc1ccccc1NC(=O)C(=O)NCC1COc2ccccc2O1 (configuration not stated) | 11.6 µM [falling, partial curve] | 
COc1ccc(C2c3[nH]c4ccccc4c3CCN2Cc2ccoc2)c(F)c1 (configuration not stated) | 15.8 µM [falling, partial curve, poor fit] | 
Cc1ccc(/C=N/NC(=O)CN2CCN(Cc3ccccc3)CC2)s1 | 0.501 µM [rising, partial curve, poor fit] | 
Cc1csc(NC(=O)CSc2nc3ccccc3s2)n1 | 8.91 µM [falling, partial curve, poor fit] | 
Cc1ccc(/C=N/NC(=O)Nc2ccccc2)o1 | 13 µM [falling, partial curve] | 
COc1cc(/C=N/NC(=O)Cc2c[nH]c3ccccc23)cc(OC)c1OC | 35.5 µM [falling, single point] | 

SMILES | AC50 [1] | AC50 [2]
COc1ccc(OCc2cccc(C(=O)O)c2)cc1 | 1.03 µM [falling, partial curve] | 
CCOc1ccccc1C1CC(=O)Nc2cc3c(cc21)OCCO3 (configuration not stated) | 10 µM [rising, partial curve] | 8.91 µM [falling, partial curve]
N#C/C(=C/c1ccc(N2CCCCC2)o1)C(=O)Nc1ccc2ccccc2c1 | 32.6 µM [falling, single point] | 
Cc1ccc(-c2csc(NC(=S)NC(=O)c3ccco3)n2)cc1 | 0.731 µM [rising, full curve, poor fit] | 
Cc1c([C@H]2[C@@H](CC#N)C2(C)C)c2ccccc2n1C | 0.461 µM [rising, full curve, poor fit] | 
COc1cc(NC(=O)Nc2ccccc2OC)c(OC)cc1NC(=O)CN1CCCCC1 | 0.112 µM [falling, full curve, poor fit] | 
C=CCn1c(SCC(=O)Nc2ccccc2OC)nnc1-c1ccccn1 | 2.91 µM [falling, partial curve, poor fit] | 
CC(C)(C)c1csc(CS(=O)(=O)c2ccccn2)n1 | 7.08 µM [falling, partial curve, poor fit] | 
CSCC[C@H](NC(=O)OC(C)(C)C)C(=O)N/N=C/c1c(C)[nH]c(=O)[nH]c1=O | 0.366 µM [rising, full curve, poor fit] | 
Cc1ccc(NC(=O)c2ccc3ccccc3n2)nc1 | 16.4 µM [falling, single point] | 
CN(C)S(=O)(=O)c1ccc(C(=O)OCC(=O)N2CC3(C)CC2CC(C)(C)C3)cc1 (configuration not stated) | 0.731 µM [falling, partial curve, poor fit] | 
CCC1=NN(C(=O)c2ccc(Br)cc2)C(O)(c2ccc(C)cc2)C1 (configuration not stated) | 11.6 µM [falling, partial curve, poor fit] | 
CCOC(=O)c1cnc(SCc2ccc(C)cc2)nc1N | 29.1 µM [falling, single point] | 
O=C(NC(=S)Nc1ccccc1Cl)c1csnn1 | 3.16 µM [falling, full curve] | 
CC(=O)Nc1ccc2c(COC(=O)[C@@H](NS(=O)(=O)c3ccc(C)cc3)C(C)C)cc(=O)oc2c1 | 0.116 µM [rising, full curve, poor fit] | 
O=C(O)c1nn(Cc2nc3ccccc3o2)c(=O)c2ccccc12 | 1.58 µM [rising, partial curve, poor fit] | 
COCCNC(=S)N(CCc1c(C)[nH]c2ccc(C)cc12)Cc1ccco1 | 10 µM [falling, partial curve, poor fit] | 
O=C(NNC(=O)c1ccccc1O)c1cc2ccccc2o1 | 0.461 µM [falling, full curve] | 
CN1CCN(C(CNS(=O)(=O)c2ccc([N+](=O)[O-])cc2)c2ccc(F)cc2)CC1 (configuration not stated) | 1.84 µM [falling, partial curve, poor fit] | 
COc1ccc(Cn2c(C)c(C)c(C#N)c2NC(=O)Nc2ccc(F)cc2)cc1 | 3.55 µM [falling, full curve, poor fit] | 
CCc1ccc(C2NC(c3ccc(CC)cc3)C([N+](=O)[O-])C(C)(C)C2[N+](=O)[O-])cc1 (configuration not stated) | 7.31 µM [rising, partial curve, poor fit] | 
Cc1cccc(OCc2nc(C#N)c(N3CC(C)CC(C)C3)o2)c1 (configuration not stated) | 13 µM [falling, partial curve, poor fit] | 

Reformatted as comma-separated lines: entries from further up.
SMILES,AC50 [1],AC50 [2]
CCOC(=O)c1cc2n(c1N)-c1ccccc1C2=O,"4.61 µM [rising, partial curve]",
COc1ccc(-c2nnc(Sc3nc4ccccc4o3)c3ccccc23)cc1,"35.5 µM [rising, single point]",
Nc1cc(N)nc(SCC(=O)N2CCc3ccccc32)n1,"3.66 µM [falling, full curve, poor fit]",
Cc1ccccc1-c1nc2ccccc2[nH]1,"2.31 µM [falling, full curve]",
CSCCC(NS(=O)(=O)c1cccc(C(F)(F)F)c1)C(=O)N(C)CCOc1ccc(Cl)cc1 (configuration not stated),"25.9 µM [falling, partial curve, poor fit]",
CCOc1cc(/C=C2\SC(=NC)N(C)C2=O)c(Br)cc1OC(C)=O,"4.47 µM [falling, partial curve, poor fit]",
COc1ccccc1NC(=O)C(=O)NCC1COc2ccccc2O1 (configuration not stated),"11.6 µM [falling, partial curve]",
Cc1ccc(/C=N/NC(=O)CN2CCN(Cc3ccccc3)CC2)s1,"0.501 µM [rising, partial curve, poor fit]",
Cc1ccc(/C=N/NC(=O)Nc2ccccc2)o1,"13 µM [falling, partial curve]",
COc1cc(NC(=O)Nc2ccccc2OC)c(OC)cc1NC(=O)CN1CCCCC1,"0.112 µM [falling, full curve, poor fit]",
Cc1ccc(NC(=O)c2ccc3ccccc3n2)nc1,"16.4 µM [falling, single point]",
CN(C)S(=O)(=O)c1ccc(C(=O)OCC(=O)N2CC3(C)CC2CC(C)(C)C3)cc1 (configuration not stated),"0.731 µM [falling, partial curve, poor fit]",
CC(=O)Nc1ccc2c(COC(=O)[C@@H](NS(=O)(=O)c3ccc(C)cc3)C(C)C)cc(=O)oc2c1,"0.116 µM [rising, full curve, poor fit]",
O=C(NNC(=O)c1ccccc1O)c1cc2ccccc2o1,"0.461 µM [falling, full curve]",
CN1CCN(C(CNS(=O)(=O)c2ccc([N+](=O)[O-])cc2)c2ccc(F)cc2)CC1 (configuration not stated),"1.84 µM [falling, partial curve, poor fit]",
COc1ccc(Cn2c(C)c(C)c(C#N)c2NC(=O)Nc2ccc(F)cc2)cc1,"3.55 µM [falling, full curve, poor fit]",

(listing goes on)

SMILES | AC50 [1] | AC50 [2]
CC(=O)Nc1ccc(S(=O)(=O)NCCSCc2ccc(Cl)cc2Cl)cc1 | 14.1 µM [falling, single point] | 
CCOc1ccc(-c2nnn(CCC#N)n2)cc1OC | 15.8 µM [rising, partial curve] | 
COc1ccc(Cc2noc(CN3CCCC(OCc4ccccn4)C3)n2)cc1OC (configuration not stated) | 7.08 µM [rising, full curve, poor fit] | 
Clc1ccc(-n2cc(COCc3ccccc3)nn2)cc1 | 7.94 µM [falling, partial curve] | 
CN(C)c1ccc(/C=C/c2cc[n+]([O-])cc2)cc1 | 8.91 µM [rising, partial curve, poor fit] | 
Cc1cccc(/C=N/NC(=O)c2cc(Br)ccc2O)n1 | 3.98 µM [falling, partial curve, poor fit] | 35.5 µM [falling, single point]
Cc1cccc(NC(=O)CNC(=O)Cc2ccc3c(c2)OCCO3)c1C | 0.82 µM [rising, full curve, poor fit] | 
COc1ccc2c(CC(=O)NCc3cccs3)coc2c1 | 22.4 µM [falling, single point] | 
Cc1nc(C)c(C(=O)N/N=C/c2ccco2)s1 | 14.1 µM [falling, partial curve] | 
CN1CCSc2ccc(C(=O)Nc3ccc(Cl)cc3)cc21 | 0.891 µM [falling, full curve] | 
COc1ccc(C=O)cc1COc1ccc([N+](=O)[O-])c(C)c1 | 7.94 µM [rising, partial curve] | 
Cc1onc(-c2ccccc2)c1C(=O)Nc1cc(C(F)(F)F)ccc1N1CCOCC1 | 10 µM [rising, partial curve] | 15.8 µM [falling, partial curve]
O=c1[nH]c2ccccc2c(=O)n1Cc1ccco1 | 22.4 µM [falling, single point] | 
Cc1ccc(OCC(=O)NNC(=O)c2ccc(NC(=O)C3CC3)cc2)c(C)c1 | 0.501 µM [falling, partial curve, poor fit] | 
Cc1nc(SCC(=O)c2ccccc2)c([N+](=O)[O-])[nH]1 | 12.6 µM [falling, single point] | 
C=CCOC(=O)C1=C(C)Nc2[nH]c(=O)[nH]c(=O)c2C1c1cccc(OC)c1 (configuration not stated) | 0.651 µM [rising, full curve, poor fit] | 
CNC(=O)c1[nH]cnc1C(=O)N[C@@H](Cc1ccccc1)C(=O)OCc1ccccc1 | 31.6 µM [rising, single point] | 
COc1ccccc1NS(=O)(=O)c1ccc(NC(=O)c2ccncc2)cc1 | 6.31 µM [rising, single point] | 
COc1ccccc1NC(=S)NNC(=O)c1cc(C)nn1C | 32.6 µM [falling, single point] | 
O=C(COc1ccc(Cl)cc1)Nc1nc(-c2cccs2)cs1 | 29.1 µM [falling, single point] | 
